Measured values: patent US7662826B2, “Pyrazolo [1,5-a] pyrimidine derivative and nad (p) h oxidase inhibitor containing the same” (Shionogi & Co., Ltd., priority 2002, dated 2010)
Some entries share one result that the patent states for a list of compounds.

Biological target: T1, NADH/NADPH oxidase
T1 construct: Bovine aortic membrane fraction was used as enzyme preparation
Experiment: NADH/NADPH oxidase inhibition activity, lucigenin chemiluminescence, bovine aortic membrane fraction
Type: biochemical
Conditions: 5 μM lucigenin, 100 μM NADH, 37° C., pH 7.4

Compound	IC50
CCOC(=O)CCCN1CCN(c2ccccc2NC(=O)c2ccn3ncc(-c4cccc(Cl)c4)c3n2)CC1 [Compound B113]	≤ 1000 nM
NC1CCN(c2cccc(NC(=O)c3ccn4ncc(-c5ccc(NCc6ccccc6)cc5)c4n3)c2)CC1 [Compound B129]	≤ 1000 nM
O=C(Nc1ccc(N2CCNCC2)cc1)c1ccn2ncc(-c3cc(Cl)cc(Cl)c3)c2n1 [Compound B241]	≤ 1000 nM
COc1ccc(NC(=O)c2ccn3ncc(-c4ccc(Cl)cc4)c3n2)cc1N1CCNCC1 [Compound B317]	≤ 1000 nM
CN1CCN(c2ccc(NC(=O)c3ccn4ncc(-c5cccc(Cl)c5)c4n3)cc2)CC1 [Compound B296]	≤ 1000 nM
C[C@H]1CN(c2ccccc2NC(=O)c2ccn3ncc(-c4cccc(Cl)c4)c3n2)CCN1 [Compound B201]	≤ 1000 nM
O=C(Nc1ccccc1N1CCNCC1)c1ccn2ncc(-c3cc(Cl)cc(Cl)c3)c2n1 [Compound B240]	≤ 1000 nM
O=C(Nc1cccc(N2CCNCC2)c1)c1ccn2ncc(-c3ccc(OCc4ccccc4)c(F)c3)c2n1 [Compound B15]	≤ 1000 nM
O=C(Nc1ccc(CN2CCNCC2)cc1)c1ccn2ncc(-c3ccc(NCc4ccccc4)cc3)c2n1 [Compound B290]	≤ 1000 nM
CCNC1CCN(c2ccccc2NC(=O)c2cnc3c(-c4cccc(Cl)c4)cnn3c2)CC1 [Compound B5]	≤ 1000 nM
CCN(CC)[C@@H]1CCN(c2ccccc2NC(=O)c2ccn3ncc(-c4cccc(Cl)c4)c3n2)C1 [Compound B153]	≤ 1000 nM
O=C(NCc1ccccc1N1CCNCC1)Nc1cnc2c(-c3cccc(Cl)c3)cnn2c1 [Compound B40]	≤ 1000 nM
O=C(Nc1ccccc1N1CCNCC1)c1ccn2ncc(-c3ccc(OCc4ccccn4)cc3)c2n1 [Compound A252]	≤ 1000 nM
NCC1CCCCN1c1ccccc1NC(=O)c1ccn2ncc(-c3cccc(Cl)c3)c2n1 (stereo not shown) [Compound B316]	≤ 1000 nM
O=C(Nc1ccc(OC2CCNCC2)c(Cl)c1)c1ccn2ncc(-c3cccc(Cl)c3)c2n1 [Compound B328]	≤ 1000 nM
CNC1CCN(c2ccccc2NC(=O)c2ccn3ncc(-c4ccc(/C=C\c5ccccc5)cc4)c3n2)CC1 [Compound B191]	≤ 1000 nM
CC(C)CNC1CCN(c2ccccc2NC(=O)c2ccn3ncc(-c4cccc(Cl)c4)c3n2)CC1 [Compound B65]	≤ 1000 nM
Nc1ccc(-c2cnn3ccc(C(=O)Nc4ccccc4N4CCNCC4)nc23)cc1F [Compound B111]	≤ 1000 nM
CC(C)=CCNc1ccc(-c2cnn3ccc(C(=O)Nc4ccccc4N4CCNCC4)nc23)cn1 [Compound A227]	≤ 1000 nM
Cc1ccc(NC(=O)c2ccn3ncc(-c4ccc(OCc5ccccc5)cc4)c3n2)cc1N1CCNCC1 [Compound B46]	≤ 1000 nM
O=C(Nc1cc(F)ccc1N1CCNCC1)c1ccn2ncc(-c3cccc(Cl)c3)c2n1 [Compound B66]	≤ 1000 nM
CCCCNC1CCN(c2ccccc2NC(=O)c2cnc3c(-c4cccc(Cl)c4)cnn3c2)CC1 [Compound B8]	≤ 1000 nM
N=C(N)NCCCN1CCN(c2ccccc2NC(=O)c2ccn3ncc(-c4cccc(Cl)c4)c3n2)CC1 [Compound B164]	≤ 1000 nM
N[C@H]1CC[C@@H](Oc2ccc(NC(=O)c3ccn4ncc(-c5cccc(Cl)c5)c4n3)cc2)CC1 [Compound B310]	≤ 1000 nM
COc1cccc(-c2cnn3ccc(C(=O)Nc4ccc(N5CCNCC5)cc4)nc23)c1 [Compound B37]	≤ 1000 nM
COc1ccc(NC(=O)c2ccn3ncc(-c4cccc(Cl)c4)c3n2)cc1N1CCNCC1 [Compound B314]	≤ 1000 nM

Compound	IC50
CCC(C)NC1CCN(c2ccccc2NC(=O)c2cnc3c(-c4ccc(Cl)cc4)cnn3c2)CC1 (stereo not shown) [Compound B243]	≤ 1000 nM
CCCNC1CCN(c2ccccc2NC(=O)c2ccn3ncc(-c4cccc(Cl)c4)c3n2)CC1 [Compound B251]	≤ 1000 nM
O=C(Nc1ccccc1N1CCNCC1)c1ccn2ncc(-c3ccc(NCc4ccccc4)nc3)c2n1 [Compound A222]	≤ 1000 nM
CCC(C)NC1CCN(c2ccccc2NC(=O)c2cnc3c(-c4cccc(Cl)c4)cnn3c2)CC1 (stereo not shown) [Compound B11]	≤ 1000 nM
CNc1cc(C(=O)Nc2ccccc2N2CCNCC2)nc2c(-c3cccc(Cl)c3)cnn12 [Compound B51]	≤ 1000 nM
CN1CCN(c2ccccc2CNC(=O)c2ccn3ncc(-c4cccc(Cl)c4)c3n2)CC1 [Compound A55]	≤ 1000 nM
O=C(Nc1ccccc1N1CCNCC1)c1ccn2ncc(-c3ccc(SCc4ccccc4)cc3)c2n1 [Compound A243]	≤ 1000 nM
CCN[C@@H]1CCN(c2ccccc2NC(=O)c2ccn3ncc(-c4cccc(Cl)c4)c3n2)C1 [Compound B160]	≤ 1000 nM
O=C(Nc1ccc(N2CCNCC2)c(F)c1)c1ccn2ncc(-c3cccc(Cl)c3)c2n1 [Compound B7]	≤ 1000 nM
O=C(Nc1ccccc1N1CCCCC1)c1ccn2ncc(-c3cccc(Cl)c3)c2n1 [Compound A99]	≤ 1000 nM
O=C(Nc1cnc2c(-c3cccc(Cl)c3)cnn2c1)Nc1ccccc1N1CCNCC1 [Compound B249]	≤ 1000 nM
O=C(Nc1cccc(N2CCNCC2)c1)c1cc(NC2CC2)n2ncc(-c3cccc(Cl)c3)c2n1 [Compound B136]	≤ 1000 nM
NCC1CCCN(c2ccccc2NC(=O)c2ccn3ncc(-c4cccc(Cl)c4)c3n2)C1 (stereo not shown) [Compound B178]	≤ 1000 nM
CNC1CCN(c2ccccc2NC(=O)c2ccn3ncc(-c4ccc(CCc5ccccc5)cc4)c3n2)CC1 [Compound B189]	≤ 1000 nM
O=C(Nc1ccc(OC2CCNCC2)cc1)c1ccn2ncc(-c3ccc(NCc4ccccc4)cc3)c2n1 [Compound B311]	≤ 1000 nM
CN1CCN(Nc2ccc(NC(=O)c3ccn4ncc(-c5cccc(Cl)c5)c4n3)cc2)CC1 [Compound B265]	≤ 1000 nM
O=C(Nc1ccccc1N1CCNCC1)c1ccn2ncc(-c3ccc(OCc4ccccc4)cc3)c2n1 [Compound A164]	≤ 1000 nM
N=CNCCN1CCN(c2ccccc2NC(=O)c2ccn3ncc(-c4cccc(Cl)c4)c3n2)CC1 [Compound B177]	≤ 1000 nM
CC1(C)CN(c2ccccc2NC(=O)c2ccn3ncc(-c4cccc(Cl)c4)c3n2)CCN1 [Compound B273]	≤ 1000 nM
O=C(Nc1ccc(C2CCNCC2)cc1)c1ccn2ncc(-c3cccc(Cl)c3)c2n1 [Compound B334]	≤ 1000 nM
O=C(Nc1ccc(N2CCNCC2)cc1)c1ccn2ncc(-c3cccc(OCc4ccccc4)c3)c2n1 [Compound B266]	≤ 1000 nM
CC(C)(C)c1ccccc1NC(=O)c1ccn2ncc(-c3ccc(OCc4ccccc4)cc3)c2n1 [Compound A262]	≤ 1000 nM
COC(=O)CNC1CCN(c2ccccc2NC(=O)c2ccn3ncc(-c4cccc(Cl)c4)c3n2)CC1 [Compound B137]	≤ 1000 nM
O=C(Nc1ccccc1CN1CCNCC1)c1ccn2ncc(-c3cccc(Cl)c3)c2n1 [Compound A78]	≤ 1000 nM
CCNC1CCN(c2ccccc2NC(=O)c2ccn3ncc(-c4ccccc4)c3n2)CC1 [Compound B175]	≤ 1000 nM
Nc1ccccc1NNC(=O)c1ccn2ncc(-c3ccc(OCc4ccccc4)cc3)c2n1 [Compound A293]	≤ 1000 nM

Compound	IC50
O=C(Nc1ccc(CN2CCNCC2)cc1)c1ccn2ncc(-c3cccc(Cl)c3)c2n1 [Compound B206]	≤ 1000 nM
CCNC1CCN(c2cccc(NC(=O)c3ccn4ncc(-c5ccc(NCc6ccccc6)cc5)c4n3)c2)CC1 [Compound B272]	≤ 1000 nM
COc1cccc(CNc2ccc(-c3cnn4ccc(C(=O)Nc5cccc(N6CCNCC6)c5)nc34)cc2)c1 [Compound B202]	≤ 1000 nM
CCCN(C)c1ccccc1NC(=O)c1ccn2ncc(-c3cccc(Cl)c3)c2n1 [Compound A134]	≤ 1000 nM
O=C(Nc1cccc(N2CCNCC2)c1)c1ccn2ncc(-c3cccc(Cl)c3)c2n1 [Compound A79]	≤ 1000 nM
CC(C)N1CCN(c2ccccc2NC(=O)c2ccn3ncc(-c4cccc(Cl)c4)c3n2)CC1 [Compound B193]	≤ 1000 nM
CCCCNC1CCN(c2ccccc2NC(=O)c2ccn3ncc(-c4cccc(Cl)c4)c3n2)CC1 [Compound B234]	≤ 1000 nM
NCCN[C@H]1CCN(c2ccccc2NC(=O)c2ccn3ncc(-c4cccc(Cl)c4)c3n2)C1 [Compound B173]	≤ 1000 nM
O=C(Nc1ccc(N2CCNCC2)cc1)c1ccn2ncc(-c3ccc(OCc4ccccc4)cc3)c2n1 [Compound B228]	≤ 1000 nM
O=C(Nc1ccccc1OCCCN1CCNCC1)c1ccn2ncc(-c3cccc(Cl)c3)c2n1 [Compound B237]	≤ 1000 nM
O=C(Nc1cc(C(F)(F)F)ccc1N1CCNCC1)c1ccn2ncc(-c3cccc(Cl)c3)c2n1 [Compound B227]	≤ 1000 nM
Cc1cccc(-c2cnn3ccc(C(=O)Nc4ccccc4N4CCNCC4)nc23)c1 [Compound A231]	≤ 1000 nM
CN(C(=O)c1ccn2ncc(-c3ccc(OCc4ccccc4)cc3)c2n1)c1ccccc1N1CCNCC1 [Compound B268]	≤ 1000 nM
CCCCNC1CCN(c2ccccc2NC(=O)c2cnc3c(-c4ccc(Cl)cc4)cnn3c2)CC1 [Compound B23]	≤ 1000 nM
O=C(Nc1ccc(N2CCNCC2)nc1)c1ccn2ncc(-c3cccc(Cl)c3)c2n1 [Compound B276]	≤ 1000 nM
CNC[C@H]1CCCN1c1ccccc1NC(=O)c1ccn2ncc(-c3cccc(Cl)c3)c2n1 [Compound B215]	≤ 1000 nM
O=C(Nc1ccccc1N1CCC(NC(CO)CO)CC1)c1ccn2ncc(-c3cccc(Cl)c3)c2n1 [Compound B146]	≤ 1000 nM
O=C(Nc1ccc(N2CCNCC2)cc1)c1ccn2ncc(-c3cccc(F)c3)c2n1 [Compound B212]	≤ 1000 nM
CN(CC1CCCCC1)c1ccc(-c2cnn3ccc(C(=O)Nc4cccc(N5CCNCC5)c4)nc23)cc1 [Compound B127]	≤ 1000 nM
CCNC1CCN(c2ccccc2NC(=O)Nc2cnc3c(-c4ccc(Cl)cc4)cnn3c2)CC1 [Compound B38]	≤ 1000 nM
O=C(Nc1ccccc1OC1CCNCC1)c1ccn2ncc(-c3cccc(Cl)c3)c2n1 [Compound B239]	≤ 1000 nM
O=C(Nc1ccc(OCC(=O)N2CCOCC2)cc1N1CCNCC1)c1ccn2ncc(-c3cccc(Cl)c3)c2n1 [Compound B89]	≤ 1000 nM
O=C(Nc1ccccc1NC1CCCC1)c1ccn2ncc(-c3cccc(Cl)c3)c2n1 [Compound A198]	≤ 1000 nM
COc1cccc(CNc2ccc(-c3cnn4ccc(C(=O)Nc5cccc(N6C[C@@H](C)N[C@@H](C)C6)c5)nc34)cc2)c1 [Compound B155]	≤ 1000 nM
